In paper PMC3682574:
No constants are given. Whether binding was seen depends on the method and setting. Binding calls can cover weak binding; strength is not graded here. Tags and fused reporters may be left off the sequences shown.

Chains of the proteins cited; added tags and fusions are not shown. Lines headed by an entry give the natural chain unless they say otherwise; changes in a name come on top.
UniProt Q96J02: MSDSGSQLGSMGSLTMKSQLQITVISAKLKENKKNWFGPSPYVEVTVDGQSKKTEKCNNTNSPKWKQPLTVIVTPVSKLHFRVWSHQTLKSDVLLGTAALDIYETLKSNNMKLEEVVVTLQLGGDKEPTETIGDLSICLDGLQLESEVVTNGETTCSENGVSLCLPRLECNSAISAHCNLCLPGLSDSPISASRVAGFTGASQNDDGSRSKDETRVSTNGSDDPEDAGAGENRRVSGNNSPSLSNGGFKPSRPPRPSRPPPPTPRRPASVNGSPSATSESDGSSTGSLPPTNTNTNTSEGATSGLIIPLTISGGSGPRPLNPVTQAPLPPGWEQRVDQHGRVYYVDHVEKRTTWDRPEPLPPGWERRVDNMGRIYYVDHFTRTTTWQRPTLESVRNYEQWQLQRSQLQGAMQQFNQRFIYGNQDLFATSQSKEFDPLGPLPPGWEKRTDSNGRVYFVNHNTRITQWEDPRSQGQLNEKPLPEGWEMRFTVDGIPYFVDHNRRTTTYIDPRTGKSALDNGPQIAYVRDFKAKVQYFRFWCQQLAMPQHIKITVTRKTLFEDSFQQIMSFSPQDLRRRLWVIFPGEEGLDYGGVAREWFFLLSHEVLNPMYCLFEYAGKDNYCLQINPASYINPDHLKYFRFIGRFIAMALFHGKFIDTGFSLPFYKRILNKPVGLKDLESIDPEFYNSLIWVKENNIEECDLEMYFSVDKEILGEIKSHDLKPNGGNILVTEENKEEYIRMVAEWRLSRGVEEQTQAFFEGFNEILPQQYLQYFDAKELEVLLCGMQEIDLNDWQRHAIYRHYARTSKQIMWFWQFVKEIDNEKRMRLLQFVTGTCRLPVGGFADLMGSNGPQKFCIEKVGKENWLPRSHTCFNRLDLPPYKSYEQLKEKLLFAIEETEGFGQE

Molecular target: ITCH (on the domain array) (UniProt Q96J02)
Assay: peptide or protein array; solid phase SH3 and WW domain arrays (Panomics) hybridised with 10-20 μg/ml purified His-KLF11 TRD3; TRD3/bound array protein ratio 5:1; both purified

B1: His-KLF11 TRD3 (amino acids 273–351) (domain or fragment, UniProt O14901 273-351)
chain: TPLISVSVPAPPVLCQMIPVTGQSSMLPAFLKPPPQLSVGTVRPILAQAAPAPQPVFVGPAVPQGAVMLVLPQGALPPP
- binding: binds
